37 targets from the supplement of paper PMC11006884 can be followed below.

Sequences of proteins named here, by UniProt entry; tags and fusion partners are left off. A change or cut given only in a name is not applied to a line headed by its entry.
UniProt Q16512: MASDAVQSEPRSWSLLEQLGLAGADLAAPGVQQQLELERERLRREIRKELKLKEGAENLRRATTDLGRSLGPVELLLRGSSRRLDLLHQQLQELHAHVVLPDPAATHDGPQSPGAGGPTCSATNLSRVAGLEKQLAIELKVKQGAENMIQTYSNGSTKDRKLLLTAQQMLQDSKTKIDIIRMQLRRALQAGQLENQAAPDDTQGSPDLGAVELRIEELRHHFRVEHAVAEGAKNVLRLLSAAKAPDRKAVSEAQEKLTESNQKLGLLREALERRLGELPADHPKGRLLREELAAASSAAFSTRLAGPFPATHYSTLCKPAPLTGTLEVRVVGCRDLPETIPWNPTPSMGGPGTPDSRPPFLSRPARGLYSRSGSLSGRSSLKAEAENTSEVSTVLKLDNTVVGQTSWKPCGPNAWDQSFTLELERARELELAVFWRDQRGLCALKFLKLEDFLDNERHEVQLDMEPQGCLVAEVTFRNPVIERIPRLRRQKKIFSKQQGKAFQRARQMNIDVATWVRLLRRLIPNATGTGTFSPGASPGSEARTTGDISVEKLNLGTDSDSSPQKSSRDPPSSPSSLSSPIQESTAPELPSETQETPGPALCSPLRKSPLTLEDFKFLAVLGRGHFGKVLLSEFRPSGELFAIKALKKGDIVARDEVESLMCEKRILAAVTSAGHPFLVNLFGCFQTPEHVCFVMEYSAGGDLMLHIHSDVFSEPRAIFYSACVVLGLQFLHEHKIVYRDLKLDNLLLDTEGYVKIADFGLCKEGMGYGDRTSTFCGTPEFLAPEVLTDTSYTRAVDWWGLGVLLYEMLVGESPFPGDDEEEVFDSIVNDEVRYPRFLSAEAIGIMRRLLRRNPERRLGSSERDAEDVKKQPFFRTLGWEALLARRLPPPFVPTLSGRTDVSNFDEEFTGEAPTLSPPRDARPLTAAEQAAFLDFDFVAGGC
UniProt Q15417: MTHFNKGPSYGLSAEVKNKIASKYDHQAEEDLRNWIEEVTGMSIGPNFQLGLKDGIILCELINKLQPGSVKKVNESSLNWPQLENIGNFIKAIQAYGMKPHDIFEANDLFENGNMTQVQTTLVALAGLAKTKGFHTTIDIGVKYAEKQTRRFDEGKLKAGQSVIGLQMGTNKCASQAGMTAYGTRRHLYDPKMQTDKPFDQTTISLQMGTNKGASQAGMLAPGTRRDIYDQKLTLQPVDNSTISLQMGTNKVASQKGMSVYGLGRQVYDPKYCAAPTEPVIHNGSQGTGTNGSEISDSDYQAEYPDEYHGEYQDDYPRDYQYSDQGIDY
UniProt Q15717, whole entry: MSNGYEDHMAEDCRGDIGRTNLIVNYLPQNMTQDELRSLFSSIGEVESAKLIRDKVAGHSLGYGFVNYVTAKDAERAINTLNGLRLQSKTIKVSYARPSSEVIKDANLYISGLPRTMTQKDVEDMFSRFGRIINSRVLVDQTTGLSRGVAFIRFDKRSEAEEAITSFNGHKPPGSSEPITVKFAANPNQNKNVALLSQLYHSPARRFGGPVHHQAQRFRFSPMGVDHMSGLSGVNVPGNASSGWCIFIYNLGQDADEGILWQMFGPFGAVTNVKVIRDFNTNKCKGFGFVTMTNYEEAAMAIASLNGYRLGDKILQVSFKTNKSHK
UniProt Q15758: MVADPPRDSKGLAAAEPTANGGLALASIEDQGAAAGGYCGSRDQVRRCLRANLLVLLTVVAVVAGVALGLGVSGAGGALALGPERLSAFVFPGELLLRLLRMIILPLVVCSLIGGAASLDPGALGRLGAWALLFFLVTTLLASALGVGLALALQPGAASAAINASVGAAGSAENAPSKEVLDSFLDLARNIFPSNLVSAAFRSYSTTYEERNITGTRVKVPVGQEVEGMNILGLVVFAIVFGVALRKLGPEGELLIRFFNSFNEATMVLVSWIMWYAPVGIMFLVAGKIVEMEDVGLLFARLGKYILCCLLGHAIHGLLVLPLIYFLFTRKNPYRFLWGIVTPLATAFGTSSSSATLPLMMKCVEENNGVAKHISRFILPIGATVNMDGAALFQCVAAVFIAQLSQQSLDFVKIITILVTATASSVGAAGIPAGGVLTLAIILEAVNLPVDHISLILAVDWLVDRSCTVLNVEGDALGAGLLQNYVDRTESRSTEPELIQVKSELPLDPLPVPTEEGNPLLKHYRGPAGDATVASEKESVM
UniProt Q16543: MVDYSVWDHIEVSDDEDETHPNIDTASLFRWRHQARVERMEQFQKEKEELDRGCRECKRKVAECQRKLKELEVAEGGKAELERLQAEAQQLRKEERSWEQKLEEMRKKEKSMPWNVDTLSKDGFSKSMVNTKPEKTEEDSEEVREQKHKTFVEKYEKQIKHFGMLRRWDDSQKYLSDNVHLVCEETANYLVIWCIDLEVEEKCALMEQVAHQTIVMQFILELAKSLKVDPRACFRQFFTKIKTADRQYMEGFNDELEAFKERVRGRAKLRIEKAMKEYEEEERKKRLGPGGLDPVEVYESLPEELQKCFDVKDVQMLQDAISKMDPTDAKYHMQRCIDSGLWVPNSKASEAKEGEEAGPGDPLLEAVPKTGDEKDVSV
UniProt Q53H80, whole entry: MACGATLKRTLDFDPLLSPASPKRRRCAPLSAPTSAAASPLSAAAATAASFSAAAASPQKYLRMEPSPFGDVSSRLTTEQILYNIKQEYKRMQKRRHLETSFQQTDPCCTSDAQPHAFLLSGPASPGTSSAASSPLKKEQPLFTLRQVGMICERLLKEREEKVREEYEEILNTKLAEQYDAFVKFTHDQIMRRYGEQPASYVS
UniProt Q16527: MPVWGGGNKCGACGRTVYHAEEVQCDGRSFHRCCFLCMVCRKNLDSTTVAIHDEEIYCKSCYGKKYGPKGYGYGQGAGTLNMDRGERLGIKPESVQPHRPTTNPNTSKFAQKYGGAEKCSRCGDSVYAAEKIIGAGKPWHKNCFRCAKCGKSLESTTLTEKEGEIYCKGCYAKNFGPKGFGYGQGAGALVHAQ
UniProt Q15437: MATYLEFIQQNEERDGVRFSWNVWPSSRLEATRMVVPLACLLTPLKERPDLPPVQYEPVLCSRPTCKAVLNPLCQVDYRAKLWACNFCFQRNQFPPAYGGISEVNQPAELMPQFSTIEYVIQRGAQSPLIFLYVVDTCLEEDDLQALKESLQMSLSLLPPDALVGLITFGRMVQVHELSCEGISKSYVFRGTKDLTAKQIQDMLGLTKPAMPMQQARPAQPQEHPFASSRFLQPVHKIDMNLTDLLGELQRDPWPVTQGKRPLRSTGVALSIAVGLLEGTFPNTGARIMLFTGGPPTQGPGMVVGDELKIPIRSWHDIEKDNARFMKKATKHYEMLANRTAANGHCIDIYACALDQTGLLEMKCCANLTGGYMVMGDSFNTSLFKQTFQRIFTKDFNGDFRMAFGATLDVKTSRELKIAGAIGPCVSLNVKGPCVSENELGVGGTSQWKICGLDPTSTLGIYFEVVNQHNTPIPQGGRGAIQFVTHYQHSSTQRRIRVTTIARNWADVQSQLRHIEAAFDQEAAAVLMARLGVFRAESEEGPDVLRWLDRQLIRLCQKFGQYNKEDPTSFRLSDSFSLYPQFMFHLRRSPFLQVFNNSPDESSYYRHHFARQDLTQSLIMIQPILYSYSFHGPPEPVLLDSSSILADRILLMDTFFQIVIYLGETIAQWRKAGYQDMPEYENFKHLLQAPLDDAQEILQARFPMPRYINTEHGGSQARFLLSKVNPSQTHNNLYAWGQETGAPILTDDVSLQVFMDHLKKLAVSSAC
UniProt Q16576, whole entry, looked up: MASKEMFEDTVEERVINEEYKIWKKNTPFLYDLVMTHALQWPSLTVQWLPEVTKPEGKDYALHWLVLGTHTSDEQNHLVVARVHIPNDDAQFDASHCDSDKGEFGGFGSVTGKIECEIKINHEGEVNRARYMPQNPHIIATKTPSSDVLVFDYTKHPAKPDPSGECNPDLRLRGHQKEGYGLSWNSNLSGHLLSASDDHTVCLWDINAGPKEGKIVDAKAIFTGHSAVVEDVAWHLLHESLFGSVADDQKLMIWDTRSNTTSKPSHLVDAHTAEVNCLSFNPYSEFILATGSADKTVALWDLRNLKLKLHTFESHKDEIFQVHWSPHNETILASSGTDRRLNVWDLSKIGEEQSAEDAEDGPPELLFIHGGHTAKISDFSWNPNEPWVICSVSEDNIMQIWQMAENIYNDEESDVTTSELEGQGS
UniProt Q2NL82: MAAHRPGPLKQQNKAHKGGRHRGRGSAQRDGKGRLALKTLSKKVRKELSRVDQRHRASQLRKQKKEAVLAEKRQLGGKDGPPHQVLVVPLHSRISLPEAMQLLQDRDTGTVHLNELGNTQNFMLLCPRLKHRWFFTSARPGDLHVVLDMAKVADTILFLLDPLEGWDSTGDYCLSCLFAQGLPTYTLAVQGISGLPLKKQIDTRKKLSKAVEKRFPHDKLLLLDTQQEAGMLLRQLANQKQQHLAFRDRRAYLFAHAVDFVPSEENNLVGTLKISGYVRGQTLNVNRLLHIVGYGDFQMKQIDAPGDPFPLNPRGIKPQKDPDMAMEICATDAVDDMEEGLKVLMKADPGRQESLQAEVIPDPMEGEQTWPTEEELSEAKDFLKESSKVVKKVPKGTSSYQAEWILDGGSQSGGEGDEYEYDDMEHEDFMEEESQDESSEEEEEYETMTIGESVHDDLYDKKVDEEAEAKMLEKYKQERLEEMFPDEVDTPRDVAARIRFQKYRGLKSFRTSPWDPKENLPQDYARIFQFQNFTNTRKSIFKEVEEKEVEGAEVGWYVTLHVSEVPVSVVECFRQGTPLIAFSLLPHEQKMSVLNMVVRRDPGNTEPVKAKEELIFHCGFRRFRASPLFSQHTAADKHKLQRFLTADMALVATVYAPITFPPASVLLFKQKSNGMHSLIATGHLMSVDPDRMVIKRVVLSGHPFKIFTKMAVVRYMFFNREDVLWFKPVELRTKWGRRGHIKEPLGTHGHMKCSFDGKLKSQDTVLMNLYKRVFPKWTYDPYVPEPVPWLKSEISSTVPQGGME
UniProt Q15633: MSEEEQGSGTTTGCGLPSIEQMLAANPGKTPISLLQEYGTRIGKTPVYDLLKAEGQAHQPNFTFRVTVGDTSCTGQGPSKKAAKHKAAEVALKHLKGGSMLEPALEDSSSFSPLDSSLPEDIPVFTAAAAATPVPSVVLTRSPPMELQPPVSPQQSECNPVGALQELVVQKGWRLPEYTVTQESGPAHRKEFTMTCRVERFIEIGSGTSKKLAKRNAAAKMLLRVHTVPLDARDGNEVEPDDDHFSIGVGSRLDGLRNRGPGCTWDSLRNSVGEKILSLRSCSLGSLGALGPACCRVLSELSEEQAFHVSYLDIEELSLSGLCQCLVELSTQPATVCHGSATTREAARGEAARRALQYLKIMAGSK
UniProt Q15208: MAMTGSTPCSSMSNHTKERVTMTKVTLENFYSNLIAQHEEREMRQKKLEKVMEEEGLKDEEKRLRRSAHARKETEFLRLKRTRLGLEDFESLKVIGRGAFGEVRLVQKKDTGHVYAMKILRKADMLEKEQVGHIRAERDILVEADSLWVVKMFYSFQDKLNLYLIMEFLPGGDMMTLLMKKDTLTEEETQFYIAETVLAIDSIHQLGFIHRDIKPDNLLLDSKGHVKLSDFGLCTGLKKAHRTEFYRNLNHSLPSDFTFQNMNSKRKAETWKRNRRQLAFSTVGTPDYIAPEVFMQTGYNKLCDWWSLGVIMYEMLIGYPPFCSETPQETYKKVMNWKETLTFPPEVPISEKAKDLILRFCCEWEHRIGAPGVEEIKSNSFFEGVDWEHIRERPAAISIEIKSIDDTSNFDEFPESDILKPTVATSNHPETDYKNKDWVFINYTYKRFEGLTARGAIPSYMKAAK
UniProt Q15398: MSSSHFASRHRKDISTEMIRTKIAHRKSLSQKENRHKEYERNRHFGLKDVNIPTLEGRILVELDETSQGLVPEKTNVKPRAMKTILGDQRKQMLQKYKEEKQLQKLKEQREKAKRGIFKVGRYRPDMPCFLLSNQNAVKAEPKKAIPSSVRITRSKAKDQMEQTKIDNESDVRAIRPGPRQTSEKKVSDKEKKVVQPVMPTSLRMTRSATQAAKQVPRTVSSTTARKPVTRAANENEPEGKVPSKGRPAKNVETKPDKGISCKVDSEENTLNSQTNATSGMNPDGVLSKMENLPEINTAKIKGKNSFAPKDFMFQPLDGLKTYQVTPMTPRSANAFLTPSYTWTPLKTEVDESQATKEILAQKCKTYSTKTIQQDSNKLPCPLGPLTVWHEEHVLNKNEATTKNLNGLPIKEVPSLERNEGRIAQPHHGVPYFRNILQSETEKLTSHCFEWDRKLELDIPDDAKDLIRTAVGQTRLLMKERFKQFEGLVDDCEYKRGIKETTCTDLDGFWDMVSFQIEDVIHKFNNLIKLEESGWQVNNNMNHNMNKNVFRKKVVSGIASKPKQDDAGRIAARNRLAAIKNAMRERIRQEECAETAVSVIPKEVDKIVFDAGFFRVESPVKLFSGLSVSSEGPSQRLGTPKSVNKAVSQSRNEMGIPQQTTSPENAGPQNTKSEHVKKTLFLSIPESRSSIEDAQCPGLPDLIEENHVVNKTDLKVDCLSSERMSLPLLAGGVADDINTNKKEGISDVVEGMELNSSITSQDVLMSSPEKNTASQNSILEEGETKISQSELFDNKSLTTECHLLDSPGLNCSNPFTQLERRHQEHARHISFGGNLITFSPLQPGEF

This list holds what a sample rich in targets with a hit left over. Single values of this set are uncertain. Only a part is listed here, and it is no random draw.

Compound in the experiment: COC(=O)/C=C/c1ccccc1 [methyl cinnamate]
Kind of experiment: log2 ratio of iodoacetamide-alkyne labeling of the cysteine site, DMSO over compound (competition); higher = stronger covalent engagement of the cysteine by the compound, active = 1 or more. The following applies: 500 µM; treatment time 1 h; system: HEK293T cell lysate. The procedure, abridged:
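Three replicates, each with duplicate channels, were prepared from HEK293T lysate (2 mg/mL) treated with vehicle or electrophile at 500 µM for 1 h at ambient temperature. Iodoacetamide alkyne was then applied for 1 h, and samples were clicked to sCIP-TMT reagents, pooled, trypsin-digested overnight at 37 °C, enriched on streptavidin, acid-eluted and analysed on Orbitrap Eclipse LC-MS/MS with FAIMS, with FragPipe quantification. The log2 competition ratio per cysteine is the mean control-channel divided by the mean compound-channel reporter intensity. Cysteines quantified in only one replicate were left out.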
For the target LARS2 C167 (UniProt Q15031), the “log2 ratio of iodoacetamide-alkyne labeling” value (“log2 ratio” below) is inactive: -0.322.

As to WDR43 C380 (UniProt Q15061), the “log2 ratio” value is inactive: 0.175.

LRRFIP1 C14 (UniProt Q32MZ4): the “log2 ratio” value was inactive: 0.147.

Consider HSD17B12 C215 (UniProt Q53GQ0), for which the “log2 ratio” value is inactive: 0.107.

UniProt Q16512_C120: the “log2 ratio” value is inactive: 0.00511.

As to ETFDH C592 (UniProt Q16134), the “log2 ratio” value is inactive: 0.0771.

On to EEA1 C1405 (UniProt Q15075), for which the “log2 ratio” value was inactive: 0.124.

As for CNN3 C59 (UniProt Q15417), the “log2 ratio” value was inactive: 0.191.

Take UBE3C C252 (UniProt Q15386): the “log2 ratio” value is inactive: -0.0482.

In the case of QSER1 C530 (UniProt Q2KHR3), the “log2 ratio” value is inactive: 0.0977.

As to SLC9A3R2 C271 (UniProt Q15599), the “log2 ratio” value was inactive: 0.196.

As for PWP2 C24 (UniProt Q15269), the “log2 ratio” value is inactive: 0.0555.

EFTUD2 C842 (UniProt Q15029): the “log2 ratio” value is inactive: 0.336.

As for ELAVL1 C13 (UniProt Q15717), the “log2 ratio” value was inactive: 0.0749.

Consider SLC1A5 C363 (UniProt Q15758), for which the “log2 ratio” value was inactive: 0.422.

As to GLYR1 C303 (UniProt Q49A26), the “log2 ratio” value was inactive: 0.207.

Regarding HNRNPUL2 C57 (UniProt Q1KMD3), the “log2 ratio” value is inactive: 0.262.

As for CDC37 C308 (UniProt Q16543), the “log2 ratio” value is inactive: 0.0968.

For LRRFIP1 C644 (UniProt Q32MZ4), the “log2 ratio” value was inactive: 0.203.

In the case of TBCE C141 (UniProt Q15813), the “log2 ratio” value was inactive: 0.0907.

On to AKIRIN2 C3 (UniProt Q53H80), for which the “log2 ratio” value is inactive: 0.244.

Turning to BAK1 C14 (UniProt Q16611), the “log2 ratio” value is inactive: 0.287.

Turning to CSRP2 C167 (UniProt Q16527), the “log2 ratio” value was inactive: 0.114.

As to LRRC41 C588 (UniProt Q15345), the “log2 ratio” value is inactive: 0.0228.

Regarding SEC23B C767 (UniProt Q15437), the “log2 ratio” value is inactive: 0.187.

With RBBP7 C97 (UniProt Q16576), the “log2 ratio” value was inactive: 0.155.

As for UniProt Q16512_C602, the “log2 ratio” value is inactive: -0.24.

Take UniProt Q15149_C3336: the “log2 ratio” value is inactive: 0.491.

On to TSR1 C329 (UniProt Q2NL82), for which the “log2 ratio” value was inactive: 0.061.

Consider PDK2 C45 (UniProt Q15119), for which the “log2 ratio” value was inactive: 0.203.

Consider SEC23B C180 (UniProt Q15437), for which the “log2 ratio” value is inactive: 0.247.

On to TARBP2 C282 (UniProt Q15633), for which the “log2 ratio” value was inactive: 0.255.

UniProt Q15208_C9: the “log2 ratio” value is inactive: 0.343.

Turning to NSDHL C86 (UniProt Q15738), the “log2 ratio” value is inactive: -0.0217.

Turning to DLGAP5 C592 (UniProt Q15398), the “log2 ratio” value was inactive: 0.0919.

Consider UniProt Q15750_C24, for which the “log2 ratio” value is inactive: 0.0964.

For the target MTERF2 C288 (UniProt Q49AM1), the “log2 ratio” value was inactive: -0.164.
